Data reported in publication PMC9261359.
These are yes or no findings as the source states them, for the method shown. Binding seen in cells or lysates may run through a third protein. Some binding calls cover weakened binding; strength is not graded here.

Chains of the proteins cited; added tags and fusions are not shown.
UniProt P08670: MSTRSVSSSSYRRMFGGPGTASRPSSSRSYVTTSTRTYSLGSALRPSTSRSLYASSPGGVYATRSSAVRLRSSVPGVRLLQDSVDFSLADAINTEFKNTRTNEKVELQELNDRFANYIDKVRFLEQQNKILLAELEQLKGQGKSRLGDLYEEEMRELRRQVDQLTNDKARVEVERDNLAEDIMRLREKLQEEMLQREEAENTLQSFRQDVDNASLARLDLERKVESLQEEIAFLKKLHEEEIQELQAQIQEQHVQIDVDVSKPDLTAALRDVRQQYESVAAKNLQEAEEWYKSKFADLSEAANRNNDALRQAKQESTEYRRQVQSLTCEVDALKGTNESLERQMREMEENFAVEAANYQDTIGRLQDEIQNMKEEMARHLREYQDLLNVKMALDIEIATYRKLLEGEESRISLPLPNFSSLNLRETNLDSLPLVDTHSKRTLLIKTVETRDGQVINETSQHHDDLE

Molecular target: T1, Dectin-1 (human (endogenous in adipose tissue)) (UniProt Q9BXN2)
T1 sequence: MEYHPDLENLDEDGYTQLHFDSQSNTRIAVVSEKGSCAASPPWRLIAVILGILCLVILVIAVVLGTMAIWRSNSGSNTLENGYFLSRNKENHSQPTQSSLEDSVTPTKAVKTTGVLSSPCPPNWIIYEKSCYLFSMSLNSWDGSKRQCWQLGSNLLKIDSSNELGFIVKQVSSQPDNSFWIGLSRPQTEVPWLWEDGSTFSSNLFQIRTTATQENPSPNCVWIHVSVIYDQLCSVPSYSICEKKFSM
Experiment: co-IP; Dectin-1 immunoprecipitated from human adipose tissue of obese individuals; western blot for vimentin

binding: binds
Substance: vimentin (from UniProt P08670 1-466)
